# US12681015B2, “Methods for predicting patient response to DMARDs” (Queen Mary University of London, priority 2019, dated 2026)
# The amount applied is not stated for every result. Where no unit stands, none is given here, and values compare only within one read-out.
# Assay: Plasma lipid mediator profiling in RA patients 6 months after DMARD treatment initiation
# Assay type: in vivo, human
# Details: 6 months after treatment initiation, non-responders
row,SMILES,"Peripheral blood lipid mediator profile after 6 months of DMARD treatment, DMARD Non-Responders, Mean ± SEM"
1,CC/C=C\C[C@H](O)/C=C/C=C\C[C@@H](O)/C=C/C=C/C=C\[C@@H](O)CCC(=O)O [RvD3],0.02 ± 0.02
2,CC/C=C\C[C@H](O)/C=C\C=C\C/C=C/C=C/C=C/C(O)[C@@H](O)CCC(=O)O (some centres unmarked) [RvD4],0.93 ± 0.26
3,CC/C=C\C[C@H](O)/C=C/C=C\C/C=C\C=C\[C@@H](O)C/C=C\CCC(=O)O [RvD5],0.32 ± 0.11
4,CC/C=C\CC(O)/C=C/C=CCC=C/C=C\C(O)CCCCCC(=O)O (centres unmarked) [RvD5n-3 DPA],1.38 ± 0.28
5,CC/C=C\C[C@H](O)/C=C/C=C\C/C=C\C/C=C\C=C\[C@@H](O)CCC(=O)O [RvD6],0.55 ± 0.16
6,CC[C@@H](O)/C=C/C=C\C[C@@H](O)/C=C/C=C/C=C\[C@@H](O)CCCC(=O)O [RvE1],0.00 ± 0.00
7,CC[C@@H](O)/C=C/C=C\C/C=C\C/C=C\C=C\[C@@H](O)CCCC(=O)O [RvE2],3.62 ± 1.44
8,CC[C@H](O)C(O)/C=C/C=C/C=C\C/C=C\C/C=C\CCCC(=O)O (some centres unmarked) [RvE3],0.90 ± 0.23
9,CCC(O)/C=C/C=C\C=C\C(O)C/C=C\C=C\C(O)CCCCCC(=O)O (centres unmarked) [RvT1],0.23 ± 0.12
10,CC/C=C\C/C=C\C=C\C(O)C(O)/C=C/C=C\C(O)CCCCCC(=O)O (centres unmarked) [RvT2],0.16 ± 0.10
11,CC/C=C\C/C=C\C=C\C(O)/C=C/C=C/C(O)C(O)CCCCCC(=O)O (centres unmarked) [RvT3],0.00 ± 0.00
12,CC/C=C\C/C=C\C=C\C(O)C/C=C\C=C\C(O)CCCCCC(=O)O (centres unmarked) [RvT4],0.93 ± 0.27
13,CCCCC[C@H](O)/C=C/[C@H]1OC(O)C[C@H](O)[C@@H]1C/C=C\CCCC(=O)O (some centres unmarked) [TXB2],168.15 ± 85.85

# Same assay, conditions: 6 months after treatment initiation, responders
row,SMILES,"Peripheral blood lipid mediator profile after 6 months of DMARD treatment, DMARD Responders, Mean ± SEM"
1,CC/C=C\C[C@H](O)/C=C/C=C\C[C@@H](O)/C=C/C=C/C=C\[C@@H](O)CCC(=O)O [RvD3],0.13 ± 0.05
2,CC/C=C\C[C@H](O)/C=C\C=C\C/C=C/C=C/C=C/C(O)[C@@H](O)CCC(=O)O (some centres unmarked) [RvD4],1.38 ± 0.41
3,CC/C=C\C[C@H](O)/C=C/C=C\C/C=C\C=C\[C@@H](O)C/C=C\CCC(=O)O [RvD5],0.30 ± 0.12
4,CC/C=C\CC(O)/C=C/C=CCC=C/C=C\C(O)CCCCCC(=O)O (centres unmarked) [RvD5n-3 DPA],1.26 ± 0.21
5,CC/C=C\C[C@H](O)/C=C/C=C\C/C=C\C/C=C\C=C\[C@@H](O)CCC(=O)O [RvD6],0.52 ± 0.10
6,CC[C@@H](O)/C=C/C=C\C[C@@H](O)/C=C/C=C/C=C\[C@@H](O)CCCC(=O)O [RvE1],0.09 ± 0.07
7,CC[C@@H](O)/C=C/C=C\C/C=C\C/C=C\C=C\[C@@H](O)CCCC(=O)O [RvE2],5.26 ± 1.02
8,CC[C@H](O)C(O)/C=C/C=C/C=C\C/C=C\C/C=C\CCCC(=O)O (some centres unmarked) [RvE3],0.87 ± 0.26
9,CCC(O)/C=C/C=C\C=C\C(O)C/C=C\C=C\C(O)CCCCCC(=O)O (centres unmarked) [RvT1],0.34 ± 0.13
10,CC/C=C\C/C=C\C=C\C(O)C(O)/C=C/C=C\C(O)CCCCCC(=O)O (centres unmarked) [RvT2],0.04 ± 0.04
11,CC/C=C\C/C=C\C=C\C(O)/C=C/C=C/C(O)C(O)CCCCCC(=O)O (centres unmarked) [RvT3],0.00 ± 0.00
12,CC/C=C\C/C=C\C=C\C(O)C/C=C\C=C\C(O)CCCCCC(=O)O (centres unmarked) [RvT4],0.31 ± 0.09
13,CCCCC[C@H](O)/C=C/[C@H]1OC(O)C[C@H](O)[C@@H]1C/C=C\CCCC(=O)O (some centres unmarked) [TXB2],190.70 ± 72.02
